Here are results for one molecule from PMC11148069.

The test addresses His14-NEDD8-tagged APD of xtNup98 (715–866) (Xenopus tropicalis). The test is described as follows: pull-down; His14-NEDD8-APD of xtNup98 immobilised on Ni2+ chelate matrix, incubated with xNup98-Nb1t or xhNup98-Nb2i, then xNup96(1–20)-RFP or xtNup88(2–500) added; eluted by NEDP1; SDS-PAGE/Coomassie; both purified.

No constants are given. Whether binding was seen depends on the method and setting. Binding can be weak; no strength is given.

B1: N-terminal β-propeller of xtNup88 (residues 2–500) (domain or fragment, UniProt F7C806 2-500)
chain: AAGEHWQSSLSEHALFSRLKERTREVEELREEGERRTRKDKQLRNLLCVLDGDLLVWDSEECAFLTVRLRSLSVESTGSSGEQKLLCTNPPLFEVNEVLLSPTQHHVALVGSKGVMVLEIPKRWGKKSEFEGGEKTVNCRAIPIAERIFTSSTSLVLKQALWYPSETQEPHLILLTSDNILRLYNLHDPLTPEKVISLSSAEEETTLPHNGRSYKASLGETAVACDFGPLTPLPKGFGQYNKEDTVAYPLYILYETGETYLMYIDLQKSNIKVGKLLGPLPMYPAAEDNYGYDACAVLCLACVPNIIVIATESGLLYHCVVLEGEDDDEQTSNKSWNSSCDLIPSLYVFECVELELALKLATEEEESMELDFSCPIKLHRDPICPSRYHCTHVAGVHSVGLAWFNKLEKFLGSGEEDKDSLQELAAEQKCLVEHILCTKPLRCRLPSPIQGFWIISDLSLGTSMICITCDFECIARPLLTTIRPPSPPLLCFKIDKSST
As for B1, the binding entry is “binds”.
